Results reported in publication PMC10907691.
These are yes or no findings as the source states them, for the method shown. Binding seen in cells or lysates may run through a third protein. Some binding calls cover weakened binding; strength is not graded here.

Protein sequences, listed by entry. Tags and fused reporters are not part of them.
UniProt P05412: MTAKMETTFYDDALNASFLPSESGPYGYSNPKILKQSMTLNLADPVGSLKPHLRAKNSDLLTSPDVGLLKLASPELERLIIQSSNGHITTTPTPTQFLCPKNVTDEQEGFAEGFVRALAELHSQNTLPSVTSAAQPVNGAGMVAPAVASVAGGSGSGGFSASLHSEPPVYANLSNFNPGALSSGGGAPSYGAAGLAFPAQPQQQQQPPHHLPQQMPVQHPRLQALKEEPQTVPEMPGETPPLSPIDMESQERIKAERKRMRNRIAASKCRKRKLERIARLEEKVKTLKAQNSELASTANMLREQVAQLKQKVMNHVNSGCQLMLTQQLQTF
UniProt Q04206: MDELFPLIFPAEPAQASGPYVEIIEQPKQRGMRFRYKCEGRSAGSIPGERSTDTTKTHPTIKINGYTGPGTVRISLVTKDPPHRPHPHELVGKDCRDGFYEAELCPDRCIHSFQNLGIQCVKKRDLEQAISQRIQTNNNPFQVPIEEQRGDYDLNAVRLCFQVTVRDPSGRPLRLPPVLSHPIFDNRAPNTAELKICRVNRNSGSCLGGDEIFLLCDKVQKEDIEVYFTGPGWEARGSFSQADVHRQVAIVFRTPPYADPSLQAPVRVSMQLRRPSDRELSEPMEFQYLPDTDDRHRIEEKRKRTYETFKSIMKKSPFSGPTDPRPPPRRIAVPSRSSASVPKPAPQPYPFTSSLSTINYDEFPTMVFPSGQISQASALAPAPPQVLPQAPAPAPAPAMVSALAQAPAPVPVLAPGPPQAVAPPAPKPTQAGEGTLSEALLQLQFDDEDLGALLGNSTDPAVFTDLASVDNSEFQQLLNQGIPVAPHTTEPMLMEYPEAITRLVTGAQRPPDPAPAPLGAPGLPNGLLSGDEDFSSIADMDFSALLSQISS

Target: T1, Gasdermin E full-length (human (endogenous in HaCaT)) (UniProt O60443)
T1 sequence: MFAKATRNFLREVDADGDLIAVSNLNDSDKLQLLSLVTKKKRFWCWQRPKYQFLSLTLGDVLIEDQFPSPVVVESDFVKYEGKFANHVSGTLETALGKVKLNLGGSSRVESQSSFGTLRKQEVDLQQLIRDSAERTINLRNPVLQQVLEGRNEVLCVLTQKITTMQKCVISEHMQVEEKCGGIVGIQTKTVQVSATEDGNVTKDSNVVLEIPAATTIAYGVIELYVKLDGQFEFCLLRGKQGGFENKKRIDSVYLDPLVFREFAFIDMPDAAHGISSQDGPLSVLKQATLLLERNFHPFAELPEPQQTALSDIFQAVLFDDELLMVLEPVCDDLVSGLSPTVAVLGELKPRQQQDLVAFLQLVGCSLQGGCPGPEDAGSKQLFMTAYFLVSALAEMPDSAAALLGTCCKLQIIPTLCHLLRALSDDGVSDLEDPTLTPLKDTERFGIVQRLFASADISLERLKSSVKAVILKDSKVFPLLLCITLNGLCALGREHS
Test: co-IP; cell lysate incubated with anti-GSDME antibody (ab221843) or normal IgG at 4 °C overnight, Protein A+G agarose 1 h at room temperature, Western blot; cells with or without M5 cytokine stimulation

Substance | binding
c-jun (from UniProt P05412 1-331) | binds
NF-κB p65 (from UniProt Q04206 1-551) | binds
